Measurements from paper PMC10679098.
No constants are given. Whether binding was seen depends on the method and setting. Binding seen in cells or lysates may run through a third protein. Binding calls can cover weak binding; strength is not graded here.

Biological target: EGFR extracellular domain construct (human)
Experiment: co-IP; exogenous co-IP from transfected 293T cells; about 200 ug total cellular protein incubated with the target antibody overnight at 4 °C, protein A-agarose beads, rabbit control IgG as negative control, immunoblot

B1: Procollagen-lysine, 2-oxoglutarate 5-dioxygenase 2 (PLOD2), full-length, expressed from a plasmid (enzyme, UniProt O00469-2 26-758)
chain: ADSEKPSSIPTDKLLVITVATKESDGFHRFMQSAKYFNYTVKVLGQGEEWRGGDGINSIGGGQKVRLMKEVMEHYADQDDLVVMFTECFDVIFAGGPEEVLKKFQKANHKVVFAADGILWPDKRLADKYPVVHIGKRYLNSGGFIGYAPYVNRIVQQWNLQDNDDDQLFYTKVYIDPLKREAINITLDHKCKIFQTLNGAVDEVVLKFENGKARAKNTFYETLPVAINGNGPTKILLNYFGNYVPNSWTQDNGCTLCEFDTVDLSAVDVHPNVSIGVFIEQPTPFLPRFLDILLTLDYPKEALKLFIHNKEVYHEKDIKVFFDKAKHEIKTIKIVGPEENLSQAEARNMGMDFCRQDEKCDYYFSVDADVVLTNPRTLKILIEQNRKIIAPLVTRHGKLWSNFWGALSPDGYYARSEDYVDIVQGNRVGVWNVPYMANVYLIKGKTLRSEMNERNYFVRDKLDPDMALCRNAREMTLQREKDSPTPETFQMLSPPKGVFMYISNRHEFGRLLSTANYNTSHYNNDLWQIFENPVDWKEKYINRDYSKIFTENIVEQPCPDVFWFPIFSEKACDELVEEMEHYGKWSGGKHHDSRISGGYENVPTDDIHMKQVDLENVWLHFIREFIAPVTLKVFAGYYTKGFALLNFVVKYSPERQRSLRPHHDASTFTINIALNNVGEDFQGGGCKFLRYNCSIESPRKGWSFMHPGRLTHLHEGLPVKNGTRYIAVSFIDP
For B1, the binding was “binds”.
